Assay results taken from PubChem BioAssay AID330 (DTP/NCI, 2004).
The list shows only some results of the screen, not a fair sample: it is rich in T/C values a quarter to a half above the control, in often repeated tests (any T/C) and in doses without a T/C. Further doses and runs are listed elsewhere. T/C: endpoint of the treated group in % of that of the vehicle group. Some doses have a count of surviving animals in place of a T/C: the source files T/C as zero there, which appears to mark a toxic dose or a test without result, not a measured value. Some doses without a T/C left all or most animals alive at the check, yet need not have been tolerated: survival well below the control is almost never listed, so the zero probably covers shortened survival too. Survivors were counted at the toxicity check, usually on the fifth day, unless a day is given; later deaths do not show. Schedule codes are those of the source, read here as Q, the interval in days (D) or hours (H), X, the number of doses. Some structures stand for samples that the source files as different forms (salt, stereo form or complex); doses refer to the form tested. Some entries hold several experiments; their values stand side by side, smallest first. Where survival is the endpoint, this PubChem deposit counts one and a half times the control or more as active, and values a quarter to a half above the control carry no call in these data; other NCI protocols may use other cut-offs. Some T/C values are followed by the survivors on the day toxicity was checked, most often the fifth; without a count, all were alive then. Counts like (3×) give the number of equal values in this list.

Test system: P388 leukemia ip, CD2F1 mice, survival T/C
Assay: NCI In Vivo Anticancer Drug Screen. Data for tumor model P388 Leukemia (intraperitoneal) in CD2F1 (CDF1) mice
Conditions: T/C endpoint: median survival time, higher T/C = longer survival
[1] = dose: 100.0 mg/kg/injection, schedule: Q01DX009 (ip), vehicle: saline
[2] = dose: 200.0 mg/kg/injection, schedule: Q01DX009 (ip), vehicle: saline
[3] = dose: 100.0 mg/kg/injection, schedule: Q01DX009 (ip), vehicle: saline with Tween-80
[4] = dose: 200.0 mg/kg/injection, schedule: Q01DX009 (ip), vehicle: saline with Tween-80
[5] = dose: 400.0 mg/kg/injection, schedule: Q04DX003 (ip), vehicle: saline
[6] = dose: 200.0 mg/kg/injection, schedule: Q01DX005 (ip), vehicle: saline with Tween-80
[7] = dose: 200.0 mg/kg/injection, schedule: Q04DX002 (ip), vehicle: saline with Tween-80

CCOP(O)(=S)OCC
survivor count (dose: 50.0 mg/kg/injection, schedule: Q01DX001 (ip), vehicle: saline): 6 of 6 | survivor count (dose: 100.0 mg/kg/injection, schedule: Q01DX001 (ip), vehicle: saline): 6 of 6

N#CCCN(CCC#N)Cc1c(O)c(O)c(CN(CCC#N)CCC#N)c2ccccc12
T/C (dose: 400.0 mg/kg/injection, schedule: Q01DX005 (ip), vehicle: saline with Tween-80): 125 % of control

COc1cc2c(Cc3ccc(OC)c(OC)c3)[n+](Cc3ccccc3)ccc2cc1NCc1ccccc1
T/C (dose: 3.13 mg/kg/injection, schedule: Q01DX009 (ip), vehicle: Klucel (hydroxypropylcellulose) (HPC)): 131 % of control | T/C (dose: 6.25 mg/kg/injection, schedule: Q01DX009 (ip), vehicle: Klucel (hydroxypropylcellulose) (HPC)): 145 % of control | T/C (dose: 12.5 mg/kg/injection, schedule: Q01DX009 (ip), vehicle: Klucel (hydroxypropylcellulose) (HPC)): 130 and 136 % of control | survivor count (dose: 25.0 mg/kg/injection, schedule: Q01DX009 (ip), vehicle: Klucel (hydroxypropylcellulose) (HPC)): 5 of 6 | survivor count (dose: 50.0 mg/kg/injection, schedule: Q01DX009 (ip), vehicle: Klucel (hydroxypropylcellulose) (HPC)): 0 of 6

COc1ccccc1C1OC2=C(Nc3ccc([N+](=O)[O-])cc3N2)C1=O (stereo not given)
survivor count (dose: 60.0 mg/kg/injection, schedule: Q01DX005 (ip), vehicle: Klucel (hydroxypropylcellulose) (HPC)): 6 of 6 | survivor count (dose: 240.0 mg/kg/injection, schedule: Q01DX005 (ip), vehicle: Klucel (hydroxypropylcellulose) (HPC)): 6 of 6

CN(C)CCC(OC(=O)c1ccccc1Cl)c1ccccc1 (stereo not given)
T/C [1]: 126 % of control | survivor count [2]: 0 of 6

COc1ccc(CC2c3cc(OC)c(OC)cc3CCN2C)cc1OC (stereo not given)
survivor count [3]: 0 of 6 | survivor count [4]: 0 of 6

CCN(CC)CCOCC(=O)Nc1c(C)cccc1Cl
survivor count [5]: 0 of 6

NC(CSCSCc1ccccc1)C(=O)O (stereo not given)
survivor count (dose: 400.0 mg/kg/injection, schedule: Q01DX009 (ip), vehicle: other): 2 of 6

O=S(=O)(O)O.[Cu+2].[NH-]CC1CCCC(C[NH-])C1.[NH-]CC1CCCC(C[NH-])C1 (stereo not given)
survivor count (dose: 100.0 mg/kg/injection, schedule: Q04DX002 (ip), vehicle: Klucel (hydroxypropylcellulose) (HPC)): 0 of 6 | survivor count (dose: 200.0 mg/kg/injection, schedule: Q04DX002 (ip), vehicle: Klucel (hydroxypropylcellulose) (HPC)): 0 of 6 | survivor count (dose: 400.0 mg/kg/injection, schedule: Q04DX002 (ip), vehicle: Klucel (hydroxypropylcellulose) (HPC)): 0 of 6

O=C([Se][Se]C(=O)c1ccc(Cl)cc1)c1ccc(Cl)cc1
survivor count [4]: 0 of 6

CCCNP1(NCCC)=NP(NCCC)(NCCC)=NP(NCCC)(NCCC)=NP(NCCC)(NCCC)=N1
survivor count (dose: 100.0 mg/kg/injection, schedule: Q01DX005 (ip), vehicle: saline with Tween-80): 4 of 6 | survivor count [6]: 0 of 6

Cc1ccc(C(=N)c2ccccc2Cc2cccc3ccccc23)c(C)c1
survivor count (dose: 400.0 mg/kg/injection, schedule: Q01DX009 (ip), vehicle: saline with Tween-80): 5 of 6

C[C@@H]1C(=O)O[C@H]2[C@H]1CC[C@@]1(C)C=C(Cl)C(=O)[C@@H](C)[C@H]21
survivor count [7]: 0 of 6

O=C(CC(=O)c1ccccc1)c1ccccc1.[Tl]
survivor count (dose: 25.0 mg/kg/injection, schedule: Q01DX009 (ip), vehicle: saline with Tween-80): 6 of 6 | survivor count (dose: 50.0 mg/kg/injection, schedule: Q01DX009 (ip), vehicle: saline with Tween-80): 4 of 6

C[N+]1(Cc2ccccc2)CCC(O)(C(=O)c2ccccc2)CC1 (stereo not given)
survivor count (dose: 120.0 mg/kg/injection, schedule: Q01DX005 (ip), vehicle: saline with Tween-80): 2 of 6 | survivor count (dose: 240.0 mg/kg/injection, schedule: Q01DX005 (ip), vehicle: saline with Tween-80): 1 of 6

CCCCCN(CCCCC)CCCNc1c2c(nc3ccc(Cl)cc13)CCCC2
survivor count (dose: 100.0 mg/kg/injection, schedule: Q01DX005 (ip), vehicle: saline): 0 of 5 | survivor count (dose: 200.0 mg/kg/injection, schedule: Q01DX005 (ip), vehicle: saline): 0 of 5

COc1ccc(C(=S)NC(O)C(=O)c2ccc(Cl)cc2)cc1OC (stereo not given)
survivor count [4]: 3 of 6

COc1ccc(CNCC#N)c(OC)c1
survivor count [6]: 0 of 6

C/C=C/N=NNc1ccccc1OC
survivor count (dose: 200.0 mg/kg/injection, schedule: Q04DX003 (ip), vehicle: saline + Tween-80 + alcohol): 5 of 6 | survivor count (dose: 400.0 mg/kg/injection, schedule: Q04DX003 (ip), vehicle: saline + Tween-80 + alcohol): 0 of 6

CC1=C(C(N)=O)C(c2ccccc2)NC(=S)N1 (stereo not given)
T/C (dose: 50.0 mg/kg/injection, schedule: Q01DX005 (ip), vehicle: Klucel (hydroxypropylcellulose) (HPC)): 94, 97, 99, 103 % of control (2×) | T/C (dose: 100.0 mg/kg/injection, schedule: Q01DX005 (ip), vehicle: Klucel (hydroxypropylcellulose) (HPC)): 98 and 100 % of control (3×) | T/C (dose: 200.0 mg/kg/injection, schedule: Q01DX005 (ip), vehicle: Klucel (hydroxypropylcellulose) (HPC)): 100, 101, 151 [4 of 5 alive], 167 % of control | survivor count (dose: 400.0 mg/kg/injection, schedule: Q01DX005 (ip), vehicle: Klucel (hydroxypropylcellulose) (HPC)): 1 of 6, 2 of 6, 6 of 6

NC1=NC(c2ccccc2)C=C(c2ccccc2)N1 (stereo not given)
survivor count (dose: 100.0 mg/kg/injection, schedule: Q04DX002 (ip), vehicle: saline with Tween-80): 0 of 6 | survivor count [7]: 0 of 6 | survivor count (dose: 400.0 mg/kg/injection, schedule: Q04DX002 (ip), vehicle: saline with Tween-80): 0 of 6

CC(C)(C#N)NNC(N)=S
survivor count (dose: 25.0 mg/kg/injection, schedule: Q01DX009 (ip), vehicle: saline): 1 of 6 | survivor count (dose: 50.0 mg/kg/injection, schedule: Q01DX009 (ip), vehicle: saline): 0 of 6 | survivor count [1]: 0 of 6 | survivor count [2]: 0 of 6 | survivor count [5]: 0 of 6

Cn1cnc2c1c(=O)n(C(C(N)=O)C(N)=O)c(=O)n2C
survivor count (dose: 100.0 mg/kg/injection, schedule: Q01DX001 (ip), vehicle: saline with Tween-80): 6 of 6

COc1cc2c(cc1OC)C1CC(OC(=O)c3ccccc3)(c3nccc4cc(OC)c(OC)cc34)CCN1CC2 (stereo not given)
survivor count [3]: 3 of 6 | survivor count [4]: 1 of 6

Cc1cc2sccc2cn1
survivor count [3]: 4 of 6

COc1ccc2c(c1OC(C)=O)-c1cc(O)cc3c1C(C2)N(C(=O)CN(CCCl)CCCl)CC3 (stereo not given)
T/C (dose: 3.12 mg/kg/injection, schedule: Q04DX003 (ip), vehicle: saline): 125 % of control | T/C (dose: 3.13 mg/kg/injection, schedule: Q04DX003 (ip), vehicle: distilled water + Tween-80): 126 % of control | T/C (dose: 6.25 mg/kg/injection, schedule: Q04DX003 (ip), vehicle: DMSO): 143 % of control | T/C (dose: 6.25 mg/kg/injection, schedule: Q04DX003 (ip), vehicle: distilled water + Tween-80): 134 % of control | T/C (dose: 6.25 mg/kg/injection, schedule: Q04DX003 (ip), vehicle: saline): 131 % of control | T/C (dose: 12.5 mg/kg/injection, schedule: Q04DX003 (ip), vehicle: DMSO): 142 % of control | T/C (dose: 12.5 mg/kg/injection, schedule: Q04DX003 (ip), vehicle: distilled water + Tween-80): 136 % of control | T/C (dose: 12.5 mg/kg/injection, schedule: Q04DX003 (ip), vehicle: saline): 140 % of control | T/C (dose: 25.0 mg/kg/injection, schedule: Q04DX003 (ip), vehicle: DMSO): 144 % of control | T/C (dose: 25.0 mg/kg/injection, schedule: Q04DX003 (ip), vehicle: saline): 149 % of control | T/C (dose: 50.0 mg/kg/injection, schedule: Q04DX003 (ip), vehicle: DMSO): 130 % of control | survivor count (dose: 50.0 mg/kg/injection, schedule: Q04DX003 (ip), vehicle: distilled water + Tween-80): 6 of 6 | survivor count (dose: 100.0 mg/kg/injection, schedule: Q04DX003 (ip), vehicle: DMSO): 3 of 6 | survivor count (dose: 100.0 mg/kg/injection, schedule: Q04DX003 (ip), vehicle: distilled water + Tween-80): 1 of 6

Nc1nn2nnnc2c2ccccc12
survivor count (dose: 200.0 mg/kg/injection, schedule: Q04DX002 (ip), vehicle: saline): 3 of 6
